Experimental findings from publication PMC11205660 are described below.

For this series, the system named is σHAs (SigH, ACSP50_0507) (Actinoplanes sp. SE50/110). Briefly: EMSA. As to conditions: 3.40 uM protein, 0.05 nM DNA, poly(dI-dC), LightShift Chemiluminescent EMSA kit per manufacturer, 0.05 nM biotinylated dsDNA, 0.05-1 nM unlabeled competitor, recombinant protein, protein details: C-terminal His6, label: 5' biotin on strand 1. (In general: A gel shift assay detects complexes by their altered migration in electrophoresis.)

Construct, isoform or probe ends are uncertain for at least one entry. Negatives hold for the conditions tested.

With “GAAATTAGACTTTTGTTTTCTCTGTGATTACTGATCTTCGTGGAGGGGATTAGAGCCCCCG (double strand) [ACSP50_4135 promoter (-60 to +1)]”, under “competed by excess unlabeled specific DNA”, the binding result was “binds”.
Consider “ACGAGTGTCACTCATACTTTCGGCTAGTCTTTCGTCGGACACTCGGCTACGGTGGTCGCA (double strand) [sigHAs (ACSP50_0507) promoter (-60 to +1)]”, for which the binding result (reversed by excess unlabeled specific DNA) is reported as “binds”.
“GGCTGCACCCGCGGCTGCCTGATCTGCCTGTCCCACATCAAGTGCACGCCGAAGATGAAGA (double strand) [gLuc negative control]”: the binding result is recorded as “no binding”.
